# In PMC4110944, “Probing SH2-domains using Inhibitor Affinity Purification (IAP)” (Proteome Science, 2014):
# System: SH2 proteins
# Assay: Pull-down with immobilized probe 1 from lysates of Colo205 cells treated with pervanadate or water
# Type: binding, human
# Conditions: for SH2-protein LFQ intensity ratio: triplicates
smiles,measurement,setting,value
CCCCCN(CCOCCOCCN)C(=O)[C@H](CCC(=O)O)NC(=O)[C@H](Cc1ccc(C(F)(F)P(=O)(O)O)cc1)NC(C)=O [probe 1],SH2-protein LFQ intensity ratio,"Colo205, control without pervanadate",14%
same,number of SH2 proteins quantified in three replicates,"Colo205, out of 23 present in the proteome",8
same,SH2-protein LFQ intensity ratio,"Colo205, pervanadate treated samples",7%
